Binding result and Kd data for six sequences are collected here from paper PMC7470945, “DNA backbone interactions impact the sequence specificity of DNA sulfur-binding domains: revelations from structural analyses”.

The target of data set [1] is T1, SBDSpr (SBD of SprMcrA) (Streptomyces pristinaespiralis) (UniProt A0A0M4DML1).
T1 sequence (looked up): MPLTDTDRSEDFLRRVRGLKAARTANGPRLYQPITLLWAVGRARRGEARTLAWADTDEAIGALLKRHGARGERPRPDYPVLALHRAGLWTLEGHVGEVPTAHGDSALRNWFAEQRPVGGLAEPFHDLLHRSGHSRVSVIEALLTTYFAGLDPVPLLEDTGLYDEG
In words: X-ray crystallography. To be noted: recombinant protein, residues 1-165, protein details: N-terminal 6xHis (pET28a).

For data set [2], the target named is T1, SBDSpr (SBD of SprMcrA) (Streptomyces pristinaespiralis). In words: fluorescence polarization. To be noted: FP: 20 mM Tris-HCl pH 8.0, 50 mM NaCl, 5% glycerol, 1 mM DTT, 5 nM probe, room temperature, recombinant protein, residues 1-165, protein details: N-terminal 6xHis (pET28a); for binding result: label: 5'-FAM on one strand.
Data set [3] deals with T2, SBDSco E156R/D157R (Streptomyces coelicolor) (UniProt Q9L0M9).
T2 sequence (looked up, limits assumed): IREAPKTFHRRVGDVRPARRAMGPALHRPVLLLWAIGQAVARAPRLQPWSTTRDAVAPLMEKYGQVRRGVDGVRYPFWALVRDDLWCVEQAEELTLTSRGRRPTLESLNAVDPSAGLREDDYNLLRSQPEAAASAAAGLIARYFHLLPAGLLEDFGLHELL
In words: fluorescence polarization. The conditions noted are these: RP phosphorothioate between G4 and G5 of strand 1; FP: 20 mM Tris-HCl pH 8.0, 50 mM NaCl, 5% glycerol, 1 mM DTT, 5 nM probe, room temperature; recombinant protein; protein details: 6xHis; label: 5'-FAM on one strand (FP).

Data set [4] deals with T3, SBDSpr P79A (Streptomyces pristinaespiralis) (UniProt A0A0M4DML1).
T3 sequence (looked up): T1 sequence (looked up) with P79A
In words: fluorescence polarization. To be noted: RP phosphorothioate between G4 and G5 of strand 1; FP: 20 mM Tris-HCl pH 8.0, 50 mM NaCl, 5% glycerol, 1 mM DTT, 5 nM probe, room temperature; recombinant protein; residues 1-165; protein details: 6xHis; label: 5'-FAM on one strand (FP).

In data set [5] the target is T4, SBDSpr D104A (Streptomyces pristinaespiralis) (UniProt A0A0M4DML1).
T4 sequence (looked up): T1 sequence (looked up) with D104A
In words: fluorescence polarization. To be noted: RP phosphorothioate between G4 and G5 of strand 1; FP: 20 mM Tris-HCl pH 8.0, 50 mM NaCl, 5% glycerol, 1 mM DTT, 5 nM probe, room temperature; recombinant protein; residues 1-165; protein details: 6xHis; label: 5'-FAM on one strand (FP).

Data set [6] has as its target T5, SBDSpr Y31A (Streptomyces pristinaespiralis) (UniProt A0A0M4DML1).
T5 sequence (looked up): T1 sequence (looked up) with Y31A
In words: fluorescence polarization. To be noted: RP phosphorothioate between G4 and G5 of strand 1; FP: 20 mM Tris-HCl pH 8.0, 50 mM NaCl, 5% glycerol, 1 mM DTT, 5 nM probe, room temperature; recombinant protein; residues 1-165; protein details: 6xHis; label: 5'-FAM on one strand (FP).

Data set [7] addresses T6, SBDSpr H102A (Streptomyces pristinaespiralis) (UniProt A0A0M4DML1).
T6 sequence (looked up): T1 sequence (looked up) with H102A
In words: fluorescence polarization. To be noted: RP phosphorothioate between G4 and G5 of strand 1; FP: 20 mM Tris-HCl pH 8.0, 50 mM NaCl, 5% glycerol, 1 mM DTT, 5 nM probe, room temperature; recombinant protein; residues 1-165; protein details: 6xHis; label: 5'-FAM on one strand (FP).

Data set [8] deals with T7, SBDSpr Y78A (Streptomyces pristinaespiralis) (UniProt A0A0M4DML1).
T7 sequence (looked up): T1 sequence (looked up) with Y78A
In words: fluorescence polarization. The conditions noted are these: RP phosphorothioate between G4 and G5 of strand 1; FP: 20 mM Tris-HCl pH 8.0, 50 mM NaCl, 5% glycerol, 1 mM DTT, 5 nM probe, room temperature; recombinant protein; residues 1-165; protein details: 6xHis; label: 5'-FAM on one strand (FP).

The target of data set [9] is T8, SBDSco E156Q (Streptomyces coelicolor) (UniProt Q9L0M9).
T8 sequence (looked up, limits assumed): T2 sequence (looked up, limits assumed) with R67Q, R68D
In words: fluorescence polarization. To be noted: RP phosphorothioate between G4 and G5 of strand 1; FP: 20 mM Tris-HCl pH 8.0, 50 mM NaCl, 5% glycerol, 1 mM DTT, 5 nM probe, room temperature; recombinant protein; protein details: 6xHis; label: 5'-FAM on one strand (FP).

Data set [10] deals with T9, SBDSco E156R (Streptomyces coelicolor) (UniProt Q9L0M9).
T9 sequence (looked up, limits assumed): T2 sequence (looked up, limits assumed) with R68D
In words: fluorescence polarization. To be noted: RP phosphorothioate between G4 and G5 of strand 1; FP: 20 mM Tris-HCl pH 8.0, 50 mM NaCl, 5% glycerol, 1 mM DTT, 5 nM probe, room temperature; recombinant protein; protein details: 6xHis; label: 5'-FAM on one strand (FP).

The target in data set [11] is T10, SBDSco E156D (Streptomyces coelicolor) (UniProt Q9L0M9).
T10 sequence (looked up, limits assumed): T2 sequence (looked up, limits assumed) with R67D, R68D
In words: fluorescence polarization. To be noted: RP phosphorothioate between G4 and G5 of strand 1; FP: 20 mM Tris-HCl pH 8.0, 50 mM NaCl, 5% glycerol, 1 mM DTT, 5 nM probe, room temperature; recombinant protein; protein details: 6xHis; label: 5'-FAM on one strand (FP).

Data set [12] addresses T11, SBDSpr G103A (Streptomyces pristinaespiralis) (UniProt A0A0M4DML1).
T11 sequence (looked up): T1 sequence (looked up) with G103A
In words: fluorescence polarization. To be noted: RP phosphorothioate between G4 and G5 of strand 1; FP: 20 mM Tris-HCl pH 8.0, 50 mM NaCl, 5% glycerol, 1 mM DTT, 5 nM probe, room temperature; recombinant protein; residues 1-165; protein details: 6xHis; label: 5'-FAM on one strand (FP).

The target of data set [13] is T12, SBDSco E156L (Streptomyces coelicolor) (UniProt Q9L0M9).
T12 sequence (looked up, limits assumed): T2 sequence (looked up, limits assumed) with R67L, R68D
In words: fluorescence polarization. To be noted: RP phosphorothioate between G4 and G5 of strand 1; FP: 20 mM Tris-HCl pH 8.0, 50 mM NaCl, 5% glycerol, 1 mM DTT, 5 nM probe, room temperature; recombinant protein; protein details: 6xHis; label: 5'-FAM on one strand (FP).

For data set [14], the target named is T13, SBDSpr R85A (Streptomyces pristinaespiralis) (UniProt A0A0M4DML1).
T13 sequence (looked up): T1 sequence (looked up) with R85A
In words: fluorescence polarization. To be noted: RP phosphorothioate between G4 and G5 of strand 1; FP: 20 mM Tris-HCl pH 8.0, 50 mM NaCl, 5% glycerol, 1 mM DTT, 5 nM probe, room temperature; recombinant protein; residues 1-165; protein details: 6xHis; label: 5'-FAM on one strand (FP).

Data set [15] addresses T14, SBDSco (SBD of ScoMcrA) (Streptomyces coelicolor) (UniProt Q9L0M9).
T14 sequence (looked up, limits assumed): T2 sequence (looked up, limits assumed) with R67E, R68D
In words: fluorescence polarization. The conditions noted are these: RP phosphorothioate between G4 and G5 of strand 1; FP: 20 mM Tris-HCl pH 8.0, 50 mM NaCl, 5% glycerol, 1 mM DTT, 5 nM probe, room temperature; recombinant protein; protein details: N-terminal 6xHis (pET28a); label: 5'-FAM on one strand (FP).

Data set [16] addresses T15, SBDSpr R73A (Streptomyces pristinaespiralis) (UniProt A0A0M4DML1).
T15 sequence (looked up): T1 sequence (looked up) with R73A
In words: fluorescence polarization. To be noted: RP phosphorothioate between G4 and G5 of strand 1; FP: 20 mM Tris-HCl pH 8.0, 50 mM NaCl, 5% glycerol, 1 mM DTT, 5 nM probe, room temperature; recombinant protein; residues 1-165; protein details: 6xHis; label: 5'-FAM on one strand (FP).

Data set [17] addresses T16, SBDSco E156K (Streptomyces coelicolor) (UniProt Q9L0M9).
T16 sequence (looked up, limits assumed): T2 sequence (looked up, limits assumed) with R67K, R68D
In words: fluorescence polarization. To be noted: RP phosphorothioate between G4 and G5 of strand 1; FP: 20 mM Tris-HCl pH 8.0, 50 mM NaCl, 5% glycerol, 1 mM DTT, 5 nM probe, room temperature; recombinant protein; protein details: 6xHis; label: 5'-FAM on one strand (FP).

For data set [18], the target named is T17, SBDSpr Q32A (Streptomyces pristinaespiralis) (UniProt A0A0M4DML1).
T17 sequence (looked up): T1 sequence (looked up) with Q32A
In words: fluorescence polarization. To be noted: RP phosphorothioate between G4 and G5 of strand 1; FP: 20 mM Tris-HCl pH 8.0, 50 mM NaCl, 5% glycerol, 1 mM DTT, 5 nM probe, room temperature; recombinant protein; residues 1-165; protein details: 6xHis; label: 5'-FAM on one strand (FP).

Where [19] appears, read: RP phosphorothioate between G4 and G5 of strand 1, label: 5'-FAM on one strand (FP).

Substitutions are numbered along the chain they refer to. For some assays here: Negatives hold for the conditions tested. Protein sequences can lack the tags named with them. For at least one entry, the source does not settle the construct or the ends of the probe.

With “GATGATCC (double strand) [PT-GATC-8 RP (hemi-PT)]”, the binding result in [1] (RP phosphorothioate between G4 and A5 of strand 1) is “binds”.

Turning to “CACGTTCGCC (double strand) [PT-GTTC-10 RP (hemi-PT)]”, the binding result in [2] (RP phosphorothioate between G4 and T5 of strand 1) is “no binding”.

“GGCGAACGTG (double strand) [PT-GAAC-10 SP (hemi-PT)]”: in [2] (SP phosphorothioate between G4 and A5 of strand 1), the binding result is “no binding”.

“GGCGGCCC (double strand) [PT-GGCC SP (hemi-PT)]”: in [2] (SP phosphorothioate between G4 and G5 of strand 1), the binding result was “no binding”.

For the sequence “GGCGGCCC (double strand) [PT-GGCC-8 RP (hemi-PT)]”, the Kd in data set [3] is 123 nM; in data set [4], 67 nM; in data set [5], 144 nM; in data set [6], greater than 3160 nM; in data set [7], greater than 1860 nM; in data set [8] it was greater than 4480 nM. Further, the Kd in [2] (setting [19]) is 5.6 nM; in data set [9], 137 nM; in data set [10], 133 nM; in data set [11], 112 nM; in data set [12], greater than 9000 nM; in data set [13], 110 nM. In addition, the Kd is 31 nM in data set [14]; 102 nM in data set [15]; greater than 1250 nM in data set [16]; 130 nM in data set [17]; 279 nM in [18]. Besides, the binding result in data set [1] (setting [19]) is recorded as “binds”.

Consider “CACGTTCGCC (double strand) [PT-GTTC-10 SP (hemi-PT)]”, for which, in data set [2] (SP phosphorothioate between G4 and T5 of strand 1), the binding result was “no binding”.
